In patent US20150158938A1 (SNU R AND DB FOUNDATION, published 2015):
No constants are given. Whether binding was seen depends on the method and setting. Some results given as binding are weak or reduced against the parent protein; the word gives no strength.

Target: T1, gremlin-1 in normal and cancer tissues (tissue array slides) (UniProt O60565)
T1 sequence (looked up): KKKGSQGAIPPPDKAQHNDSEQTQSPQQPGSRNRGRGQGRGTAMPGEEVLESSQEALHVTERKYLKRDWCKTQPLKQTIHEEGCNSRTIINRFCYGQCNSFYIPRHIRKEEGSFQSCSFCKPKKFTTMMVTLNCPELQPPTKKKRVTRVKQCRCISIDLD
Experiment: immunohistochemical staining of tissue array slides with FITC-labelled O-13

B1: O-13 antibody (antibody, V domains shown)
VH: EVQLLESGGGLVQPGGSLRLSCAASGFTFSSYDMSWVRQAPGKGLEWVSAISYDNGNTYYADSVKGRFTISRDNSKNTLYLQMNSLRAEDTAVYYCAKDGYHNEIAPFDYWGQGTLVTVSS
VL: QSVLTQPPSASGTPGQRVTISCSGSSSNIGSNDVNWYQQLPGTAPKLLIYYDSKRPSGVPDRFSGSKSGTSASLAISGLRSEDEADYYCATWDDSLSAYVFGGGTKLTVL
Question: For B1, which binding is on record?
Answer: binds
